Data from the supplement of paper PMC8612539.
≈ marks a conversion by molar mass, not a printed value. This continues a long series; more values of the same kind are listed elsewhere.

System: Escherichia coli
Experiment: minimum inhibitory concentration (MIC)
Description: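 Broth microdilution MIC (Sensititre BOPO7F bovine plate, CLSI methods) of 19 antimicrobials against field isolates of P. multocida, M. haemolytica, H. somni (deep nasopharyngeal swabs) and E. coli, Enterococcus spp. (rectal swabs) from weaned dairy heifers. Incubation 16-24 h at 35 C. MIC is the lowest concentration preventing visible growth. Values with <= or > lie at the tested range limits. Trimethoprim-sulfamethoxazole is given as the trimethoprim component of a 1:19 mixture.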

CC[C@H]1OC(=O)C[C@@H](O)[C@H](C)[C@@H](O[C@@H]2O[C@H](C)[C@@H](O)[C@H](N(C)C)[C@H]2O)[C@@H](CCN2CCCCC2)C[C@@H](C)C(=O)/C=C/C(C)=C/[C@@H]1CN1CCCCC1 [Tildipirosin]
Conditions	minimum inhibitory concentration [µg/mL]
isolate (source animal id): 1	8 (≈ 10.9 µM)
isolate (source animal id): 2	4 (≈ 5.45 µM)
isolate (source animal id): 3	4 (≈ 5.45 µM)
isolate (source animal id): 4	8 (≈ 10.9 µM)
isolate (source animal id): 5	8 (≈ 10.9 µM)
isolate (source animal id): 6	4 (≈ 5.45 µM)
isolate (source animal id): 7	4 (≈ 5.45 µM)
isolate (source animal id): 17	4 (≈ 5.45 µM)
isolate (source animal id): 18	8 (≈ 10.9 µM)
isolate (source animal id): 19	4 (≈ 5.45 µM)
isolate (source animal id): 20	4 (≈ 5.45 µM)
isolate (source animal id): 21	8 (≈ 10.9 µM)
isolate (source animal id): 22	4 (≈ 5.45 µM)
isolate (source animal id): 23	8 (≈ 10.9 µM)
isolate (source animal id): 24	4 (≈ 5.45 µM)
isolate (source animal id): 25	8 (≈ 10.9 µM)
isolate (source animal id): 26	8 (≈ 10.9 µM)
isolate (source animal id): 27	4 (≈ 5.45 µM)
isolate (source animal id): 28	4 (≈ 5.45 µM)
isolate (source animal id): 29	4 (≈ 5.45 µM)
isolate (source animal id): 30	4 (≈ 5.45 µM)
isolate (source animal id): 31	4 (≈ 5.45 µM)
isolate (source animal id): 32	2 (≈ 2.72 µM)
isolate (source animal id): 33	4 (≈ 5.45 µM)
isolate (source animal id): 34	2 (≈ 2.72 µM)
isolate (source animal id): 35	4 (≈ 5.45 µM)
isolate (source animal id): 36	4 (≈ 5.45 µM)
isolate (source animal id): 37	2 (≈ 2.72 µM)
isolate (source animal id): 38	8 (≈ 10.9 µM)
isolate (source animal id): 39	4 (≈ 5.45 µM)
isolate (source animal id): 40	2 (≈ 2.72 µM)
isolate (source animal id): 41	4 (≈ 5.45 µM)
isolate (source animal id): 42	4 (≈ 5.45 µM)
isolate (source animal id): 43	4 (≈ 5.45 µM)
isolate (source animal id): 44	4 (≈ 5.45 µM)
isolate (source animal id): 45	4 (≈ 5.45 µM)
isolate (source animal id): 46	2 (≈ 2.72 µM)
isolate (source animal id): 47	4 (≈ 5.45 µM)
isolate (source animal id): 48	4 (≈ 5.45 µM)
isolate (source animal id): 49	4 (≈ 5.45 µM)
isolate (source animal id): 50	2 (≈ 2.72 µM)
isolate (source animal id): 51	8 (≈ 10.9 µM)
isolate (source animal id): 52	4 (≈ 5.45 µM)
isolate (source animal id): 53	4 (≈ 5.45 µM)
isolate (source animal id): 54	4 (≈ 5.45 µM)
isolate (source animal id): 55	4 (≈ 5.45 µM)
isolate (source animal id): 56	4 (≈ 5.45 µM)
isolate (source animal id): 57	8 (≈ 10.9 µM)
isolate (source animal id): 58	8 (≈ 10.9 µM)
isolate (source animal id): 59	8 (≈ 10.9 µM)
isolate (source animal id): 60	4 (≈ 5.45 µM)
isolate (source animal id): 61	4 (≈ 5.45 µM)
isolate (source animal id): 62	4 (≈ 5.45 µM)
isolate (source animal id): 63	4 (≈ 5.45 µM)
isolate (source animal id): 64	8 (≈ 10.9 µM)
isolate (source animal id): 65	8 (≈ 10.9 µM)
isolate (source animal id): 66	16 (≈ 21.8 µM)
isolate (source animal id): 67	2 (≈ 2.72 µM)
isolate (source animal id): 68	4 (≈ 5.45 µM)
isolate (source animal id): 69	4 (≈ 5.45 µM)
isolate (source animal id): 70	4 (≈ 5.45 µM)
isolate (source animal id): 71	8 (≈ 10.9 µM)
isolate (source animal id): 72	4 (≈ 5.45 µM)
isolate (source animal id): 73	4 (≈ 5.45 µM)
isolate (source animal id): 74	4 (≈ 5.45 µM)
isolate (source animal id): 75	4 (≈ 5.45 µM)
isolate (source animal id): 76	8 (≈ 10.9 µM)
isolate (source animal id): 77	4 (≈ 5.45 µM)
isolate (source animal id): 78	8 (≈ 10.9 µM)
isolate (source animal id): 79	4 (≈ 5.45 µM)
isolate (source animal id): 80	4 (≈ 5.45 µM)
isolate (source animal id): 81	2 (≈ 2.72 µM)
isolate (source animal id): 82	4 (≈ 5.45 µM)
isolate (source animal id): 83	2 (≈ 2.72 µM)
isolate (source animal id): 84	4 (≈ 5.45 µM)
isolate (source animal id): 85	4 (≈ 5.45 µM)
isolate (source animal id): 86	4 (≈ 5.45 µM)
isolate (source animal id): 87	4 (≈ 5.45 µM)
isolate (source animal id): 88	4 (≈ 5.45 µM)
isolate (source animal id): 89	4 (≈ 5.45 µM)
isolate (source animal id): 90	4 (≈ 5.45 µM)
isolate (source animal id): 91	4 (≈ 5.45 µM)
isolate (source animal id): 92	4 (≈ 5.45 µM)
isolate (source animal id): 93	4 (≈ 5.45 µM)
isolate (source animal id): 94	2 (≈ 2.72 µM)
isolate (source animal id): 95	4 (≈ 5.45 µM)
isolate (source animal id): 96	4 (≈ 5.45 µM)
isolate (source animal id): 97	4 (≈ 5.45 µM)
isolate (source animal id): 189	4 (≈ 5.45 µM)
isolate (source animal id): 190	2 (≈ 2.72 µM)
isolate (source animal id): 191	4 (≈ 5.45 µM)
isolate (source animal id): 192	4 (≈ 5.45 µM)
isolate (source animal id): 193	4 (≈ 5.45 µM)
isolate (source animal id): 194	4 (≈ 5.45 µM)
isolate (source animal id): 195	4 (≈ 5.45 µM)
isolate (source animal id): 196	4 (≈ 5.45 µM)
isolate (source animal id): 197	4 (≈ 5.45 µM)
isolate (source animal id): 198	2 (≈ 2.72 µM)
isolate (source animal id): 199	4 (≈ 5.45 µM)
isolate (source animal id): 200	4 (≈ 5.45 µM)
isolate (source animal id): 201	4 (≈ 5.45 µM)
isolate (source animal id): 202	4 (≈ 5.45 µM)
isolate (source animal id): 203	8 (≈ 10.9 µM)
isolate (source animal id): 204	4 (≈ 5.45 µM)
isolate (source animal id): 205	8 (≈ 10.9 µM)
isolate (source animal id): 206	4 (≈ 5.45 µM)
isolate (source animal id): 207	4 (≈ 5.45 µM)
isolate (source animal id): 208	4 (≈ 5.45 µM)
isolate (source animal id): 209	8 (≈ 10.9 µM)
isolate (source animal id): 210	4 (≈ 5.45 µM)
isolate (source animal id): 211	4 (≈ 5.45 µM)
isolate (source animal id): 212	2 (≈ 2.72 µM)
isolate (source animal id): 213	8 (≈ 10.9 µM)
isolate (source animal id): 214	8 (≈ 10.9 µM)
isolate (source animal id): 215	4 (≈ 5.45 µM)
isolate (source animal id): 216	2 (≈ 2.72 µM)
isolate (source animal id): 217	≤ 1
isolate (source animal id): 218	4 (≈ 5.45 µM)
isolate (source animal id): 219	4 (≈ 5.45 µM)
isolate (source animal id): 220	4 (≈ 5.45 µM)
